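Cell assay of Leishmania donovani living inside macrophages; the read-out is not stated. Tested at 30 µM. The record gives no direction; compounds that gave an IC50 in retests scored well above the rest, so higher reads as stronger inhibition. About 69,000 compounds were tested under these conditions; 1.5% (about 1,000) showed 50% or more at least once.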

The filed quantity is “Percent Effect” (%).
The record does not define 0% and 100%; most values in the screen are far below 50% and negative numbers occur (in some assays of this library far below -100).
This is an unselected part of the compounds tested.

With Cc1cc(-c2cc(S(=O)(=O)N3C[C@H](C4CC4)[C@@H](N)C3)c(C)s2)[nH]n1 the screen gave 4.844%.
With Cc1ccsc1CNc1ccccc1C(=O)N1CCNC(=O)C1 the screen gave -17.96%.
With Cc1cc(CN2CC[C@]3(C[C@@H](OCC(=O)N(C)C)CO3)C2)no1.O=C(O)C(F)(F)F the screen gave 47.2%.
With CC(NC(=O)Nc1ccc(N2CCCC2)nc1)c1nncn1C (stereo unspecified) the screen gave 31.18%.
With COCC(=O)N1CCCC1(C(=O)N(C)C)c1cnccn1 (stereo unspecified) the screen gave -13.34%.
With O=C(Cn1ccc2ccc(Cl)cc21)/N=c1\[nH]nc(C2CCCO2)s1 (stereo unspecified) the screen gave -5.472%.
With O=C(O)C(F)(F)F.[H][C@@]12COC[C@@H](C(=O)Nc3cnccn3)[C@]1([H])CN(C1CCCC1)C2 the screen gave 22.88%.
With Nc1nccnc1C(=O)N1CCN(Cc2cccc3ccccc23)CC1 the screen gave -1.92%.
With Oc1nc(N2CCOCC2)nc2nccc(-c3ccccn3)c12 the screen gave 13.15%.
With CN(C)C1COC2(CCN(Cc3ccncc3)CC2)C1 (stereo unspecified) the screen gave 3.517%.
With CSc1ccc(CNC(=O)Cc2c(C)n[nH]c2C)cc1 the screen gave 27.04%.
With CCOc1ccccc1-n1c(C2CC(=O)N(C)C2)n[nH]c1=O (stereo unspecified) the screen gave -70.03%.
With O=C(COCC(F)(F)F)Nc1nncs1 the screen gave 9.913%.
With CC(=O)N(C)CC(=O)NCC1(c2c(F)cccc2F)CCCC1 the screen gave -57.04%.
With CC(C)(C)c1cc(NC(=O)CN2CCC(N3CCNC3=O)CC2)on1 the screen gave -14.75%.
With O=C(c1cc(-c2cccs2)nc2ccccc12)N1CCN(CCO)CC1 the screen gave 15.49%.
With CO[C@H]1CN(C(=O)OC(C)(C)C)CC1NCc1cccn1C (stereo partly specified) the screen gave 19.66%.
With O=C(C1CCOCC1)N1CC[C@@H](O)[C@@H]1Cc1ccncc1 the screen gave 2.185%.
With CCc1cc(N(C)Cc2ccnc(C)c2)n2nc(C)c(C)c2n1 the screen gave -22.33%.
With O=C(NCC1(CO)CC1)c1nnn(-c2ccc(F)cc2)c1C1CC1 the screen gave 11.87%.
With Cc1ccc(CN2CCN(Cc3ccc4nonc4c3)CC2=O)cc1 the screen gave 17.25%.
With O=C(O)C(F)(F)F.O=C(O)C(F)(F)F.c1cc(CN2CCC3(CC2)CC(N2CCCC2)CO3)co1 (stereo unspecified) the screen gave 10.85%.
With O=c1[nH]ncc(NCCOc2ccc3c(c2)OCO3)c1Cl the screen gave 33.23%.
With Fc1cccc(-c2nnn3c2COC(CNc2ncccn2)C3)c1 (stereo unspecified) the screen gave -1.165%.
With Cc1cc(-c2cnc(NC3CCCC3)nc2-c2ccoc2C)on1 the screen gave -4.714%.
With Cc1nn(C)c(C)c1C1CCCN1c1ncnc2sccc12 (stereo unspecified) the screen gave 33.23%.
With CN1CCN(C(=O)c2cnsn2)c2cc(F)ccc21 the screen gave -21.93%.
With CCc1ncc(C(=O)N2CC(Oc3ccccc3Cl)C2)cn1 the screen gave 18.16%.
With Cc1cccnc1NC(=O)CNC(=O)c1ccccc1Cl the screen gave 1.234%.
With Cc1ccc(-n2ncc(C(=O)N(C)C3CCN(C)CC3)c2N)cc1C the screen gave 14.5%.
With O=C(NCCS(=O)(=O)N1CCN(c2ncccn2)CC1)C1CCCC1 the screen gave 4.514%.

From ChEMBL document CHEMBL3988442, “University of Dundee, Small-Polar-MMV Screening Library” (2021).